The results in this text go back to doi:10.1101/2022.09.12.507573.

Amino acid sequences for entries named in this document (tags omitted). A change or cut given only in a name is not applied to a line headed by its entry.
UniProt P60953: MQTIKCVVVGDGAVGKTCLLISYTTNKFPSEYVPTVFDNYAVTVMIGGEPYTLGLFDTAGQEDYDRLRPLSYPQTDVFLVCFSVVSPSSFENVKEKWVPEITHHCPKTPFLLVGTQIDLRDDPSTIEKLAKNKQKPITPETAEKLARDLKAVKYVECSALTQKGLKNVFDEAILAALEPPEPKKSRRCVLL
UniProt P61586: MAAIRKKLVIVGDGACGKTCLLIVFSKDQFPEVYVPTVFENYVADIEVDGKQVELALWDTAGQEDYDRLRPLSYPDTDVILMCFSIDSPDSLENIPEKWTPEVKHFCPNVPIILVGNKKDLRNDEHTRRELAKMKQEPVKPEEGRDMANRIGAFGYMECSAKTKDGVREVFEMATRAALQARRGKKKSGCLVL
UniProt Q13153: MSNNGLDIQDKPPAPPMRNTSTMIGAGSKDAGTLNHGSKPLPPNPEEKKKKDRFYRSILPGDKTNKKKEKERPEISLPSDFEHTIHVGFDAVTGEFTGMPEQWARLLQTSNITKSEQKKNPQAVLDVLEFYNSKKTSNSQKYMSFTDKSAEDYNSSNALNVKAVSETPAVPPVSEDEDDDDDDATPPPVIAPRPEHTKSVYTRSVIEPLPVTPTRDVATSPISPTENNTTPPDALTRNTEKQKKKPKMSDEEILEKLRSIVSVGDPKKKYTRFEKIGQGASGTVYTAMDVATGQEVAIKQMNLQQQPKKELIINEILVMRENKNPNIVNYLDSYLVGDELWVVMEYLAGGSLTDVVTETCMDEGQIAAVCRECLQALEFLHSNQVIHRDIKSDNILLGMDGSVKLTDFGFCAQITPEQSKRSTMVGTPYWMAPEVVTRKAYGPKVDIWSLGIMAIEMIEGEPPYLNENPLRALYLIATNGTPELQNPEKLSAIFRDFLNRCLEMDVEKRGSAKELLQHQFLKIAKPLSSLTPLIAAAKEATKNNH
UniProt P42768: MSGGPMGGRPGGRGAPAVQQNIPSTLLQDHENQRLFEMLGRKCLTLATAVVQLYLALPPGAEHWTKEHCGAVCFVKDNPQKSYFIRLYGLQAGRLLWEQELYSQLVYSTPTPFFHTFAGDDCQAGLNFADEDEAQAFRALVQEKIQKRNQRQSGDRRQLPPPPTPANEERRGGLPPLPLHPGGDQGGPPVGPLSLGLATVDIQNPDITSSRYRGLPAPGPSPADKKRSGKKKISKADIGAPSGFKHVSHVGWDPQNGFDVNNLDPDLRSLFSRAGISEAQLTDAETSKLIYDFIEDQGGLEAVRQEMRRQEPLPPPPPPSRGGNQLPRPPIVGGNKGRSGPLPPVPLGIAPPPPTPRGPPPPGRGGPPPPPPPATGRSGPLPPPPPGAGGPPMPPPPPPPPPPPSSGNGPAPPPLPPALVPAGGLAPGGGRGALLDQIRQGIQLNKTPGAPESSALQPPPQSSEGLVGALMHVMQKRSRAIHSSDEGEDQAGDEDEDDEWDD
UniProt O00401: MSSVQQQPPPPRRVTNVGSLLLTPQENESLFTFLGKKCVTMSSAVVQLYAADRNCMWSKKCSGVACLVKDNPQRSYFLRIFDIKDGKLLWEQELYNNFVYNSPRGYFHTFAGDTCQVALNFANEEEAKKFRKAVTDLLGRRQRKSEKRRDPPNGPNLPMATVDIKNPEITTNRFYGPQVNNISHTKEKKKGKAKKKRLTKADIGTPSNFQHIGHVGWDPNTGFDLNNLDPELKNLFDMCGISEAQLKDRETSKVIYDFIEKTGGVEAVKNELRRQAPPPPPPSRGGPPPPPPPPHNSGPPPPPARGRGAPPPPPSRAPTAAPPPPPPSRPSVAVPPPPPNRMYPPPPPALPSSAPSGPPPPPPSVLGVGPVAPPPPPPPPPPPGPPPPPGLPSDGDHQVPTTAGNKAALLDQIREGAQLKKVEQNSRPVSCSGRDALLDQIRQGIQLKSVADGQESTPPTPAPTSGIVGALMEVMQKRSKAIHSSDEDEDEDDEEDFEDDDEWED
UniProt Q07912: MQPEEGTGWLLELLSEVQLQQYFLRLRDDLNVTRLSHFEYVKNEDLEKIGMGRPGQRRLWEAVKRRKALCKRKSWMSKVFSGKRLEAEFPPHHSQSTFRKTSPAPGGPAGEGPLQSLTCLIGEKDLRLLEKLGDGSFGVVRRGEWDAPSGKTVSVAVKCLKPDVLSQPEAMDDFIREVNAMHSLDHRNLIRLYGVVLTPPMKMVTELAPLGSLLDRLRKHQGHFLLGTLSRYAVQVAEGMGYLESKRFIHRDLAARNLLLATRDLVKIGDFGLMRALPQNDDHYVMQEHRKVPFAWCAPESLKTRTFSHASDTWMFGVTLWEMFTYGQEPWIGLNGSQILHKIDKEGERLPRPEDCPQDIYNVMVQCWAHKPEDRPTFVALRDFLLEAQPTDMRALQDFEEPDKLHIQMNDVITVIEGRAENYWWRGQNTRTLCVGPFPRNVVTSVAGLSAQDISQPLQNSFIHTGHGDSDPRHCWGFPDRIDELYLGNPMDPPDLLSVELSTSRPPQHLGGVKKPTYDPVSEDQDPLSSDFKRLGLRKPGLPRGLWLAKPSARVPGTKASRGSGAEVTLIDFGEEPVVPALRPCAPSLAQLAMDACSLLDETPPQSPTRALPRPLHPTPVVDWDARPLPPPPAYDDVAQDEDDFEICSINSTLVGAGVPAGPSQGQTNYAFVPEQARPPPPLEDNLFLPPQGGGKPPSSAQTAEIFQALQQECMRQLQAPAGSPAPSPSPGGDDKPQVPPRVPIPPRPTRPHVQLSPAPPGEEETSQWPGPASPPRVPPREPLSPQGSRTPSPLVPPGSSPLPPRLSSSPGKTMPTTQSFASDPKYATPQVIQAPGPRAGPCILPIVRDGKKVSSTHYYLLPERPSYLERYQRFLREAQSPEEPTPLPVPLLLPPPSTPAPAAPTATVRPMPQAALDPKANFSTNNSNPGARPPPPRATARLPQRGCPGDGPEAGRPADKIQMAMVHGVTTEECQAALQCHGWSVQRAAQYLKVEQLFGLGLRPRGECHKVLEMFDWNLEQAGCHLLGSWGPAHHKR
UniProt O96013: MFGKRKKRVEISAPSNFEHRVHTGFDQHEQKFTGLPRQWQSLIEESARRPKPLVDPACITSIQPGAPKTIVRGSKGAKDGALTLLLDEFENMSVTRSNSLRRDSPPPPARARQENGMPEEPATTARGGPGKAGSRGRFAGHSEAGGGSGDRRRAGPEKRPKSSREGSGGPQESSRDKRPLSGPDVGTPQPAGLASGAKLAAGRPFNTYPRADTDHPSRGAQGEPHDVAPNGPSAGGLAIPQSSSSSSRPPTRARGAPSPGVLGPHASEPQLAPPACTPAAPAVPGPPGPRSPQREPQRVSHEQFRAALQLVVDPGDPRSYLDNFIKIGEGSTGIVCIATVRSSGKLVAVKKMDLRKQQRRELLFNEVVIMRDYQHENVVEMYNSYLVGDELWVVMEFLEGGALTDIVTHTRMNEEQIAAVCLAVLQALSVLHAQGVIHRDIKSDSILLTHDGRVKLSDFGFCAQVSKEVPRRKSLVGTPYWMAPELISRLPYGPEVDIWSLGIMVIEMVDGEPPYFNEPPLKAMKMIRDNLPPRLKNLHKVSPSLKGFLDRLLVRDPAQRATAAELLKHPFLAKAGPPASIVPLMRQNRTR

The target in test [1] is TOMM20-mTurquoise2-Cdc42(G12V)-ΔCaaX (UniProt P60953).
Test [2] has the same target. The source holds these as a separate data set.
For test [3], the target named is H2A-mTurquoise2-Cdc42(G12V)-ΔCaaX (UniProt P60953).
Test [4] deals with H2A-mTurquoise2-RhoA(G14V)-ΔCaaX (UniProt P61586).

Like-named read-outs stand apart in the source and are kept apart here. These are yes or no findings as the source states them, for the method shown. For some assays here: A result given as binding can be weak or reduced; the word gives no strength.

For the molecule “mScarlet-I-Pak1(CRIB) (from UniProt Q13153 75-88) (domain or fragment)”, the binding entry in test [1], in test [2] and in test [3] was “binds” throughout.

Turning to “dimericTomato-WASp(CRIB) (from UniProt P42768 238-251) (domain or fragment)”, the binding entry in test [4] is listed as “no binding”.

On to “mScarlet-I-WASp (full length WASp) (from UniProt P42768 1-502)”, for which, in test [2], the binding entry is “binds”.

Consider “mScarlet-I-WASp(CRIB) (from UniProt P42768 238-251) (domain or fragment)”, for which the binding entry in test [1], in test [2] and in test [3] was “binds” throughout.

Turning to IGTPSNFQHIGHVG (domain or fragment, UniProt O00401 203-216) [mScarlet-I-N-WASP(CRIB)], the binding result in test [1] and in test [3] was “binds” in each case.

As for ISQPLQNSFIHTG (domain or fragment, UniProt Q07912 454-466) [mScarlet-I-TNK2(CRIB)], the binding entry in test [1] and in test [3] was “binds” throughout.

Take ISAPSNFEHRVHTG (domain or fragment, UniProt O96013 11-24) [mScarlet-I-Pak4(CRIB)]: the binding result in test [1] and in test [3] was “binds” in each case.
